# Literature values as cited in US11266645B2, “Methods for treating lymphoma” (Alexion Pharmaceuticals, Inc., priority 2018, dated 2022).
# Where two headings read alike, the source gives them in different places. For at least one compound, name, drawing or mass did not settle the structure. Some of these results come from one statement about several compounds together.
# Test system: patients with relapsed or refractory PTCL
# Settings: cited from earlier work; for ORR: brentuximab only anaplastic large cell lymphoma
compound,measurement,setting,value
C/C=C1\NC(=O)[C@H]2CSSCC/C=C/[C@H](CC(=O)N[C@H](C(C)C)C(=O)N2)OC(=O)[C@H](C(C)C)NC1=O [Romidepsin],ORR,listed as romidepsin,approximately 25%
same,ORR,,ORR: 26%
same,CR,,(13% CR)
same,DOR,,DOR: 11-15 months
same,CR,listed as romidepsin,8 to 15%
same,DOR,listed as romidepsin,up to 12 months
